# According to doi:10.1101/2025.08.28.672006:
# T1: FLAG-RAB3A (residues 18–190, Q81L) (UniProt P20336)
# T1 sequence: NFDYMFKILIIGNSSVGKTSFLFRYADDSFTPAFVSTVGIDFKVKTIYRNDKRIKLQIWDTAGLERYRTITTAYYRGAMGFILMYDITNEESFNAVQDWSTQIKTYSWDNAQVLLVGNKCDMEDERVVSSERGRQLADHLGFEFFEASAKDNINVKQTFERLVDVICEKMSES
# T2: phospho-FLAG-RAB3A (residues 18–190, Q81L, pT86) (UniProt P20336)
# T2 sequence (chain, phosphothreonine at 86 (pT86)): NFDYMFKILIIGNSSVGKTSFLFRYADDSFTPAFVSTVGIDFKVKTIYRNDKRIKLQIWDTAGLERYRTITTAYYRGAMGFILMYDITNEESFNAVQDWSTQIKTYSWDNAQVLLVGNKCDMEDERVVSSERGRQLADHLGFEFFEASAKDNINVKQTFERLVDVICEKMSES
# Tests used:
# [1] = molecular target: T1, FLAG-RAB3A (residues 18–190, Q81L); assay: affinity purification with mass spectrometry; FLAG-RAB3A or phospho-FLAG-RAB3A bound to anti-DYKDDDDK magnetic agarose as bait; whole brain lysate of mice given MLi-2 (30 mg/kg, 2 h) added for 1 h at 4 °C; lysis buffer 50 mM Tris-HCl pH 7.4, 150 mM NaCl, 0.5% NP40, 5 mM MgCl2; washes with lysis buffer plus 500 mM NaCl; DIA MS (Orbitrap Astral), 6 replicates a condition; only the target purified
# [2] = molecular target: T2, phospho-FLAG-RAB3A (residues 18–190, Q81L, pT86); assay: as above
Binder,binding [1],binding [2]
"ERC1 (protein, UniProt Q99MI1 1-1120) MYGSARSVGKVEPSSQSPGRSPRLPRSPRLGHRRTNSTGGSSGNSVGGGSGKTLSMENIQSLNAAYATSGPMYLSDHENVGAETPKSTMTLGRSGGRLPYGVRMTAMGSSPNIASSGVASDTIAFGEHHLPPVSMASTVPHSLRQARDNTIMDLQTQLKEVLRENDLLRKDVEVKESKLSSSMNSIKTFWSPELKKERALRKDEASKITIWKEQYRVVQEENQHMQMTIQALQDELRIQRDLNQLFQQDSSSRTGEPCVAELTEENFQRLHAEHERQAKELFLLRKTLEEMELRIETQKQTLNARDESIKKLLEMLQSKGLSAKATEEDHERTRRLAEAEMHVHHLESLLEQKEKENNMLREEMHRRFENAPDSAKTKALQTVIEMKDSKISSMERGLRDLEEEIQMLKSNGALSSEEREEEMKQMEVYRSHSKFMKNKVEQLKEELSSKDAQGEELKKRAAGLQSEIGQVKQELSRKDTELLALQTKLETLTNQFSDSKQHIEVLKESLTAKEQRAAILQTEVDALRLRLEEKETMLNKKTKQIQDMAEEKGTQAGEIHDLKDMLDVKERKVNVLQKKIENLQEQLRDKEKQMSSLKERVKSLQADTTNTDTALTTLEEALADKERTIERLKEQRDRDEREKQEEIDTYKKDLKDLREKVSLLQGDLSEKEASLLDIKEHASSLASSGLKKDSRLKTLEIALEQKKEECLKMESQLKKAHEATLEARASPEMSDRIQQLEREISRYKDESSKAQTEVDRLLEILKEVENEKNDKDKKIAELESLTSRQVKDQNKKVANLKHKEQVEKKKSAQMLEEARRREDSLSDSSQQLQDSLRKKDDRIEELEEALRESVQITAEREMVLAQEESARTNAEKQVEELLMAMEKVKQELESMKAKLSSTQQSLAEKETHLTNLRAERRKHLEEVLEMKQEALLAAISEKDANIALLELSSSKKKTQEEVAALKREKDRLVQQLKQQTQNRMKLMADNYEDDHFRSSRSNQTNHKPSPDQIIQPLLELDQNRSKLKLYIGHLTALCHDRDPLILRGLTPPASYNADGEQAAWENELQQMTQEQLQNELEKVEGDNAELQEFANTILQQIADHCPDILEQVVNALEESS",binds,binds
"ERC2 (protein, UniProt Q6PH08 1-957) MYGSARTISNLEGSPSRSPRLPRSPRLGHRRTSSGGGGGTGKTLSMENIQSLNAAYATSGPMYLSDHEGVASTTYPKGTMTLGRATNRAVYGGRVTAMGSSPNIASAGLSHTDVLSYTDQHGGLSGSSHHHHHQVPSMLRQVRDSTMLDLQAQLKELQRENDLLRKELDIKDSKLGSSMNSIKTFWSPELKKERVLRKEEAARMSVLKEQMRVSHEENQHLQLTIQALQDELRTQRDLNHLLQQESGNRGAEHFTIELTEENFRRLQAEHDRQAKELFLLRKTLEEMELRIETQKQTLNARDESIKKLLEMLQSKGLPSKSLEDDNERTRRMAEAESQVSHLEVILDQKEKENIHLREELHRRSQLQPEPAKTKALQTVIEMKDTKIASLERNIRDLEDEVQMLKANGVLNTEDREEEIKQIEVYKSHSKFMKTKIDQLKQELSKKESELLALQTKLETLSNQNSDCKQHIEVLKESLTAKEQRAAILQTEVDALRLRLEEKESFLNKKTKQLQDLTEEKGTLAGEIRDMKDMLEVKERKINVLQKKIENLQEQLRDKDKQLTNLKDRVKSLQTDSSNTDTALATLEEALSEKERIIERLKEQRERDDRERLEEIESFRKENKDLKEKVNALQAELTEKESSLIDLKEHASSLASAGLKRDSKLKSLEIAIEQKKEECNKLEAQLKKAHNIEDDSRMNPEFADRLKQLDKEASYYRDECGKAQAEVDRLLEILKEVENEKNDKDKKIAELESLTLRHMKDQNKKVANLKYNQQLEKKKNAQLLEEVRRREDSMVDNSQHLQIEELMNALEKTRQELDATKARLASTQQSLAEKEAHLANLRIERRKQLEEILEMKQEALLAAISEKDANIALLELSASKKKKTQEEVMALKREKDRLVHQLKQQTQNRMKLMADNYDEDHHHYHHHHHHHHHRSPGRSQHSNHRPSPDQDDEEGIWA",binds,binds

# Further lines, results first:
binding [1],binding [2],Binder
,binds,"RILPL1 (protein, UniProt Q9JJC6 1-406) MEEPLGSPPAALSALEKNVAELTVMDVYDIASLVGHEFERVIDQHGCESIARLMPKVVRVLEILEVLVSRHHVAPELDELRLELDRLRVERMDRIEKERKHQKELELVEDVWRGEAQDLLSQIAQLQEENKQLMTNLNHKDVGFSEEEFQKQEGMSERERQVMKRLKEVVDKQRDELRAKDRELGLKNEDVEALQQQQTRLMKINHDLRHRVTVVEAQGKALIEQKVELEADLQTKEQEMGSLRAELGKLRERLQGEHSQNGEEEEAEIQPQPDGEESISDAEKAALDLKDPNRPRFTLQELRDVLHERNELKSKVFLLQEELAYYKSEEIEEENRIPQPPPITHPRTSPQPESGIKRLFSFFSRDKKRLANTQRPTHIHESFGQWAITQRDDGYTEQGQEALQHL"
,binds,"RILPL2 (protein, UniProt Q99LE1 1-197) MEDHPVREEEDGEEDEGALAKSPLQLTTDDVYDISYVVGRELMALGSDPRVTRLQFKIVRVMEMLETLVNEGSLAVEELRMERDNLKQEVEGLRKAGVSGAQVNLGPDKMVVDLTDPNRPRFTLQELREVLQERNKLKSQLLLVQEELQCYRSGLLPPRETPGGRREKDAVVAMGNGEKEERTIMKKLFSFRSGKHT"

# Results are given in words; binding and its absence hold for the method and conditions named. Binding seen in cells or lysates may run through a third protein. These calls come from enrichment with a bait or labelling near it, and not all partners need be listed. Tags and fused reporters may be left off the sequences shown.
